For experiment [1], the target named is ACVR2B in the lysate of the myoblast C2C12 cell line (UniProt P27040). The experiment is described as follows: co-immunoprecipitation from C2C12 lysate (IP with the ACVR2B antibody, blot for myostatin); a complex, not shown to be direct.
For experiment [2], the target named is T1, DLK1 in the lysate of the myoblast C2C12 cell line (UniProt Q09163).
T1 sequence (looked up): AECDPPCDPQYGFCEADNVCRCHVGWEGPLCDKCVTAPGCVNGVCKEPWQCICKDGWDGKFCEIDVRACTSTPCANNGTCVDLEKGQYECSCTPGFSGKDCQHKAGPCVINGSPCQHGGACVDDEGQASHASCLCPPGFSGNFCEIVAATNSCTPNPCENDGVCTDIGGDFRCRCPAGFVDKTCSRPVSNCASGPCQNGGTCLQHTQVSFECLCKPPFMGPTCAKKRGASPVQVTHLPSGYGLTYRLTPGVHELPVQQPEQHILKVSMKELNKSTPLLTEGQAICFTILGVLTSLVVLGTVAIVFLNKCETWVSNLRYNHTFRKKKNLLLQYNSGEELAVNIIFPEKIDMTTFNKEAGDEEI
The experiment is described as follows: co-immunoprecipitation from C2C12 lysate (IP with the DLK1 antibody, blot for myostatin); a complex, not shown to be direct.

Sequences of proteins named here, by UniProt entry; tags and fusion partners are left off. Residues count along the entry.
UniProt P27040, residues 19-536: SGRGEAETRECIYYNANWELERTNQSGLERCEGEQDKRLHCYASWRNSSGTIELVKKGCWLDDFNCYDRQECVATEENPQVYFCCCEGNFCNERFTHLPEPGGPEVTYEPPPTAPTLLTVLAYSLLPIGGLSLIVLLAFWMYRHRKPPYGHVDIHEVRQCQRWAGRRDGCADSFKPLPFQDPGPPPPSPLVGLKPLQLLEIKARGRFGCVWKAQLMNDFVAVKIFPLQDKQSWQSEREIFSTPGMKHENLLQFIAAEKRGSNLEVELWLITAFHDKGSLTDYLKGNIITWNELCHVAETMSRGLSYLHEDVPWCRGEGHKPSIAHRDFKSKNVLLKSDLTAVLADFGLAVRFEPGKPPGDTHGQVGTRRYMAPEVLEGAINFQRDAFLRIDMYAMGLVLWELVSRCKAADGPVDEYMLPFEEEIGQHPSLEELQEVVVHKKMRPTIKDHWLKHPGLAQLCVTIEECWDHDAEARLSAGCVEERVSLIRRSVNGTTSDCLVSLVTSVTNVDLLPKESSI
UniProt O08689, residues 268-376: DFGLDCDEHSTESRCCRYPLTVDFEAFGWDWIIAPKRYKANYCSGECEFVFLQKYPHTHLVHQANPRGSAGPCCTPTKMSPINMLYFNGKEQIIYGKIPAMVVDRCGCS

No constants are given. Whether binding was seen depends on the method and setting. Binding seen in cells or lysates may run through a third protein. Some binding calls cover weakened binding; strength is not graded here.

With “myostatin in the lysate of the myoblast C2C12 cell line (from UniProt O08689 268-376) (ligand)”, the binding entry in experiment [1] and in experiment [2] was “binds” each time.

The record behind these values is patent US20150030595A1.
